Assay results: PMC11720578
Results are given in words; binding and its absence hold for the method and conditions named. In cells and extracts the contact can be indirect. Some entries that bind do so weakly or less than the wild type.

Protein sequences, listed by entry. Tags and fused reporters are not part of them.
UniProt P35222: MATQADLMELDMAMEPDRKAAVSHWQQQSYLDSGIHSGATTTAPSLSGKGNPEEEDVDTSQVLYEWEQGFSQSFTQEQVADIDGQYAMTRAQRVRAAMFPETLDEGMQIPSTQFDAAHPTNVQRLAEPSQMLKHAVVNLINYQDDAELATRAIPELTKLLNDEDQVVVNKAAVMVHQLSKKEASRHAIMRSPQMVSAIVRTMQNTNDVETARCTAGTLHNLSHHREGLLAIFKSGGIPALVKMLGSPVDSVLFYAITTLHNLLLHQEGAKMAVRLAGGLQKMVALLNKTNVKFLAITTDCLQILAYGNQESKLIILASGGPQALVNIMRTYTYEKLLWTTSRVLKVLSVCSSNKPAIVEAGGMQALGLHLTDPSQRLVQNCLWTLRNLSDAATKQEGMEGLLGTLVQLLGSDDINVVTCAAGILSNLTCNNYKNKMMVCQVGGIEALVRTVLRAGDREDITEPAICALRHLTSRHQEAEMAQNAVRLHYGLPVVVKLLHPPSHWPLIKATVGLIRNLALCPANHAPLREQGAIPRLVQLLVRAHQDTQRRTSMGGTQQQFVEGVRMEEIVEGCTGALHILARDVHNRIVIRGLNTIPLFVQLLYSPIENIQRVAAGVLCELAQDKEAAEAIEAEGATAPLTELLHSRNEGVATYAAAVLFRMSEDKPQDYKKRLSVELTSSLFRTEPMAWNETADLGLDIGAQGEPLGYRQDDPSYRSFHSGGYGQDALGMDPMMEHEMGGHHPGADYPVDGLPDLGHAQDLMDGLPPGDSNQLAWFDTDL
UniProt Q09472: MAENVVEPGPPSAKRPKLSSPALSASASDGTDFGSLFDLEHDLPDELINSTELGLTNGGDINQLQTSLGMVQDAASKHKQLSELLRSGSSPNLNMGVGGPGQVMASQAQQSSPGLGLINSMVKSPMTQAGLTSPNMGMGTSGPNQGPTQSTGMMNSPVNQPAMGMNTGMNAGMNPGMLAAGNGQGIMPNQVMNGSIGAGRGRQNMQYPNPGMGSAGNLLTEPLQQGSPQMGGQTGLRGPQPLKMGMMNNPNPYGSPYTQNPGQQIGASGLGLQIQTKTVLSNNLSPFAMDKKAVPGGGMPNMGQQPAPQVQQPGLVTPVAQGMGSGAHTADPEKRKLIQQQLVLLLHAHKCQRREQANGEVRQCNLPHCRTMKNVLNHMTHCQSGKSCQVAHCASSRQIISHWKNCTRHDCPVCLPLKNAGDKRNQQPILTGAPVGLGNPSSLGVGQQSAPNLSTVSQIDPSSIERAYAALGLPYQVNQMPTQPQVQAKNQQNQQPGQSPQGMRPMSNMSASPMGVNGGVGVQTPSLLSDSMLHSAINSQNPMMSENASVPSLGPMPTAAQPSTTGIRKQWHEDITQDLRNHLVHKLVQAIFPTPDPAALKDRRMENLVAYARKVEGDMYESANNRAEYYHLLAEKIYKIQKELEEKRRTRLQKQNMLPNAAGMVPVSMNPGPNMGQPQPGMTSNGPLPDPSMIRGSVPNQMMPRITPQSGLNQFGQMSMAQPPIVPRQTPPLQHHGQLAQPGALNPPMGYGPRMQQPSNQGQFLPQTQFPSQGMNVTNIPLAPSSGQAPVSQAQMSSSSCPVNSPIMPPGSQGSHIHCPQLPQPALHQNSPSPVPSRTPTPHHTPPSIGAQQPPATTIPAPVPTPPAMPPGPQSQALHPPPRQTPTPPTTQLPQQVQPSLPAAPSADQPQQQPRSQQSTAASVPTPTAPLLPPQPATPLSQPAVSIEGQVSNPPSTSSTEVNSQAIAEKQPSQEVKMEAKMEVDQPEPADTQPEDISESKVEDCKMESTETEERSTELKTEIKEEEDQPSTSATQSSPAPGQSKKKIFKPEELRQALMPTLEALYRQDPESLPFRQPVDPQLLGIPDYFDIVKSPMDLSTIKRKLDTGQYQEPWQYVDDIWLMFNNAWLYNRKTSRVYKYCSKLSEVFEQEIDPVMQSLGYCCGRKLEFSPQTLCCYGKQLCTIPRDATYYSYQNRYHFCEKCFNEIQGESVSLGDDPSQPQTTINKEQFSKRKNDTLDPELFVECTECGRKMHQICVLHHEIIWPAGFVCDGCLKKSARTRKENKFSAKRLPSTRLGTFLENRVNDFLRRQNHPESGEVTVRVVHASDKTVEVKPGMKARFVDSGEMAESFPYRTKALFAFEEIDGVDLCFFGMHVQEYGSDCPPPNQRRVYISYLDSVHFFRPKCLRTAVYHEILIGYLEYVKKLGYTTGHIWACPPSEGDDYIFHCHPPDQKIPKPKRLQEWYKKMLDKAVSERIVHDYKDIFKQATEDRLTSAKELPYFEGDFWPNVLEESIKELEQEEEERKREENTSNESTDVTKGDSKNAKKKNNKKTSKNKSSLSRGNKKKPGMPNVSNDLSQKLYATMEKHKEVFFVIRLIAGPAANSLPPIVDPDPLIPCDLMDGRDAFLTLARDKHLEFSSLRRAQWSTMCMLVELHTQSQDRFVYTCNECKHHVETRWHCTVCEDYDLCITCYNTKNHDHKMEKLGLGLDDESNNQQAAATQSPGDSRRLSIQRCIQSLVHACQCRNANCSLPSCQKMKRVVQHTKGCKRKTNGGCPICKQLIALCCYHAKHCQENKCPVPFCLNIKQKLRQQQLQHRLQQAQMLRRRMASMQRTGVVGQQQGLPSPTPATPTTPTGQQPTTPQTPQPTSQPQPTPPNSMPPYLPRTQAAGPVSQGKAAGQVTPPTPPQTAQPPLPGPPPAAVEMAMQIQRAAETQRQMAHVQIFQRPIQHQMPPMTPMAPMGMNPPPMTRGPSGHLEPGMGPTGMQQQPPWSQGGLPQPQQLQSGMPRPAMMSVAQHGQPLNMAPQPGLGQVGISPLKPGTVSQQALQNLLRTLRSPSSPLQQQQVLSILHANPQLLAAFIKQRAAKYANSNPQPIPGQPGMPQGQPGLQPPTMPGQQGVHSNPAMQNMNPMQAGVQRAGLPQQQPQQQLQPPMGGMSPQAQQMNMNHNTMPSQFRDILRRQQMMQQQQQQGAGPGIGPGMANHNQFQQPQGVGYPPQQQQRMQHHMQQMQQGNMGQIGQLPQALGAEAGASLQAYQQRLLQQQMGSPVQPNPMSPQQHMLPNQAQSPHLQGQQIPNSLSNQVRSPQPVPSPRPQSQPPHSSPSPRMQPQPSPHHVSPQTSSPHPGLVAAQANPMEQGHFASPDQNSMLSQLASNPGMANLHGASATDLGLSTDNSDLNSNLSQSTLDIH

Molecular target: β-catenin (human (endogenous in hbl116)) (UniProt P35222)
Assay: co-IP; endogenous proteins of hbl116 cells treated with DMSO, cisplatin (1 μM), PRI-724 (5 μM) or cisplatin plus PRI-724; precipitating antibody and conditions not told

**Q.** How did the binding turn out when p300 (from UniProt Q09472 1-2414) was run?
**A.** binds
